To fix the notation:
B1: il10ra_site1_sap_14_mot_HHH_b2_04275_000000272_0001_20_36_H_._HHH_b2_04661_af2_0001_0000400028_0000002_0_0001_af2pred_0001 (protein)
chain: SSSSSKEERLLRLMRELLELARRLNNEEELRILEHLLKALAEQLNDEEAEELLEELRELLSSSSS
B2: il10ra_site1_normal_mot_HHH_b2_00984_000000042_0001_1_20_H_._HHH_b2_06425_af2_0001_0000400016_0000001_0 (protein)
chain: SSSSDEELKEELEELIEEVRELLERGNFEEASRLAQEILRLIYRLGDQELLQKLWRIIKSGSSSS
B3: il10ra_site1_sap_25_mot_HHH_b2_06864_af2_000000190_0001_1_20_H_._HHH_b2_03106_0001_0000400031_0000001_0_0001 (protein)
chain: SSSSTRELFKLSEEAMELLRKGDDEEARKVLEEARELAEEEGNRLALINLEFVLRDIEKTSSSSS
B4: il10ra_site1_sap_18_mot_HHH_b1_03531_000000273_0001_41_54_H_._HHH_b2_07361_0001_0000200019_0000001_0_0001 (protein)
chain: SSSSSDLEEEVEELLEEARHIEDPEERYKVLKEAIEVASERGDPELFRLIMEFLHQMFQGSSSSS
B5: il10ra_site1_normal_mot_HHH_b1_05185_000000011_0001_22_39_H_._HHH_b2_07913_af2_0001_0000700031_0000001_0 (protein)
chain: SSSSSDEEEEYARLAIHFARALAKQDPEAARLLIRLMISSAEENGDEEAVEELREVLEELSSSSS
B6: il10ra_site1_normal_mot_HHH_b1_02397_af2_000000085_0001_39_57_H_._HHH_b2_04674_0001_0000100007_0000001_0 (protein)
chain: SSSSDEEERQLEKLLEELKELVEEGDHERFARVLRRLLRLAFRLRDEEALQELHELAKLLVSSSS
B7: il10ra_site1_sap_8_mot_HHH_b2_05360_af2_000000051_0001_42_55_H_._2723fefb2504348229f2f56aa7a0cadc_0001_0001_0000100004_0000001_0_0001 (protein)
chain: SSSSSSEEELREEVEELLEEAKQITDWHEAAKVLLEAVRLAIQGQDPELLQRVWEVVKKLSSSSS
B8: il10ra_site1_sap_23_mot_HHH_b2_05323_000000159_0001_1_18_H_._HHH_b1_07636_0001_0000100009_0000001_0_0001 (protein)
chain: SSSSSDEEERLEELLEEVERAIEEGDDELALRLIMEALRIVFQLGDEEALHLLWELAKRLSSSSS
B9: il10ra_site1_sap_18_mot_HHH_b1_03270_000000208_0001_21_37_H_._HHH_b1_05102_af2_0001_0000200006_0000001_0_0001 (protein)
chain: SSSSDEVEERAEELIERIEELIENGDPERALRLIIELLRLAFRNRDEEIMREAWRLAEELKSSSS
B10: il10ra_site1_normal_mot_HHH_b1_04940_000000219_0001_1_18_H_._HHH_b1_08156_0002_0000100002_0000002_0_af2pred_0001 (protein)
chain: SSSSDELERALRRLLQALKHAIELGDEERARLTIKDIEHSARFLKDEEVQRLVEELREELESSSS
B11: il10ra_site1_sap_15_mot_HHH_b2_00984_000000042_0001_1_20_H_._HHH_b2_07448_0001_0000300046_0000002_0_0001 (protein)
chain: PEELIEELAEKAGVPPEEVERVLREIKELLNLPPEQAVKSVRQLSEQEGDPRWALEVAERAARLT
B12: il10ra_site1_sap_23_mot_HHH_b2_08186_000000021_0001_43_56_H_._HHH_b2_02878_af2_0002_0000400016_0000001_0_0001 (protein)
chain: SSSSEEAEELVKEVEEELRRLLEEGNTDEAYRALKEAIEELIELGDPEAAHRLSRLFLELASSSS
B13: il10ra_site1_sap_22_mot_HHH_b2_03434_000000017_0001_1_19_H_._HHH_b1_05537_af2_0001_0000300028_0000001_0_0001_af2pred_0001 (protein)
chain: SSSSDEVREEVERLLEEAEELAKKGNPEEALKLIREAAEIAAQNRDPEALRLVIELARRLFSSSS
B14: il10ra_site1_sap_14_mot_HHH_b1_02815_af2_000000247_0001_3_20_H_._HHH_b2_03543_0001_0000200018_0000001_0_0001_af2pred_0001 (protein)
chain: SSSSSEELEEYEERLEELIERGDKEEFSQLVAEALRLAHELGDEELLKKILELAVKFLKAESSSS
B15: il10ra_site1_normal_mot_HHH_b1_05357_000000034_0001_23_39_H_._HHH_b2_07808_0001_0000100006_0000001_0_af2pred_0001 (protein)
chain: SSSSSDEEVEERIEELLEEAQKIEDREEVTYLLIRAFALANEVNDPELEKEIKKVAKELSSSSSS
B16: il10ra_site1_sap_15_mot_HHH_b1_02420_000000033_0001_20_36_H_._HHH_b2_05519_0001_0000200018_0000001_0_0001_af2pred_0001 (protein)
chain: SSSSSSDIELAARFVAFSAESAGNPEIAEEVRELLEEYQEEGKQEYLQLIVRLSRELLSSSSSSS
B17: il10ra_site1_normal_mot_HHH_b2_06979_000000158_0001_42_57_H_._HHH_b2_06581_af2_0001_0000200012_0000001_0 (protein)
chain: SSSSSEEVQRIVKLLREAAEIEDKEEAEEVVEEALELAEELGNELLRINVEFLLRDLRRGSSSSS
B18: il10ra_site1_normal_mot_HHH_b2_01310_000000089_0001_41_55_H_._HHH_b1_02429_0001_0000600044_0000001_0 (protein)
chain: SSSSDEEEERVEELEEEIRRLIEKGNPEEAVRLVQEIVRFAFRAQDPELLRLARELAREASSSSS
B19: il10ra_site1_normal_mot_HHH_b2_00440_af2_000000075_0001_42_56_H_._HHH_b2_03761_0001_0000500034_0000001_0_af2pred_0001 (protein)
chain: SSSSSEEEVRRRVEELLEEAEETPDPEERIRLLREAAHLASELGDPELQRLVIRLAQELISSSSS
B20: il10ra_site1_normal_mot_HHH_b1_01821_000000158_0001_23_39_H_._HHH_b1_04649_0001_0000100004_0000001_1 (protein)
chain: SSSSSEEEERVEELLEEAKRIDDREKLIEVLLEALRIALEIGNEELLREIWRLFRELIEEVSSSS
B21: il10ra_site1_normal_mot_HHH_b2_03220_af2_000000223_0001_23_40_H_._HHH_b1_08461_0001_0000300052_0000001_0 (protein)
chain: SSSSTEINERIWELLKLVLELRANGNPEEAQEVLEEARELVEEANNELLRFNVELLERDLRSSSS
B22: il10ra_site1_sap_9_mot_cffd2965c37bdde328b01796c783dcd7_0001_1_af2_000000013_0001_37_51_H_._HHH_b2_02076_0001_0000100004_0000002_0_0001_af2pred_0001 (protein)
chain: SSSSDELERAVKILLRAARRARELGDEEVVRRALYFAKWLAEEGNDEELREAVEELERELSSSSS
B23: il10ra_site1_normal_mot_HHH_b1_06789_af2_000000041_0001_1_20_H_._HHH_b2_03753_0001_0000100002_0000002_0_af2pred_dldesign_0_af2pred (protein)
chain: SSSSSAKYYAEQALRAARLLHEAGYLEEARKAADIALQIAKQAGDEELIKKVEDFRRELESSSSS
B24: il10ra_site1_sap_30_mot_HHH_b2_02736_000000092_0001_22_38_H_._HHH_b1_04432_0001_0000100012_0000001_0_0001 (protein)
chain: SSSSDVDRRAYELSRRAAELHSEGDEEEFREVVEEAEQLAEEANNFAILFALEVLKRALESSSSS

The other results are listed elsewhere or left out.

The assay has as its target il10ra, Q13651. Kind of assay: yeast display titration.
Consider B1, for which the “apparent Kd” value is “inactive: no binding seen”.

With B2, the “apparent Kd” value was “inactive: no binding seen”.

As to B3, the “apparent Kd” value was “inactive: no binding seen”.

In the case of B4, the “apparent Kd” value is “inactive: no binding seen”.

B5: the “apparent Kd” value was “inactive: no binding seen”.

On to B6, for which the “apparent Kd” value is “inactive: no binding seen”.

As to B7, the “apparent Kd” value is “inactive: no binding seen”.

For B8, the “apparent Kd” value is “inactive: no binding seen”.

With B9, the “apparent Kd” value was “inactive: no binding seen”.

As for B10, the “apparent Kd” value was “inactive: no binding seen”.

Take B11: the “apparent Kd” value is “inactive: no binding seen”.

Turning to B12, the “apparent Kd” value is “inactive: no binding seen”.

With B13, the “apparent Kd” value was “inactive: no binding seen”.

In the case of B14, the “apparent Kd” value is “inactive: no binding seen”.

In the case of B15, the “apparent Kd” value is “inactive: no binding seen”.

Take B16: the “apparent Kd” value was “inactive: no binding seen”.

Regarding B17, the “apparent Kd” value is “inactive: no binding seen”.

Turning to B18, the “apparent Kd” value was “inactive: no binding seen”.

B19: the “apparent Kd” value is “inactive: no binding seen”.

Take B20: the “apparent Kd” value was “inactive: no binding seen”.

In the case of B21, the “apparent Kd” value was “inactive: no binding seen”.

On to B22, for which the “apparent Kd” value is “inactive: no binding seen”.

For the molecule B23, the “apparent Kd” value is “inactive: no binding seen”.

B24: the “apparent Kd” value is “inactive: no binding seen”.

The record behind these values is PMC10163288.
